PubChem BioAssay AID1224830, NIAID, 2016
Here is one part, drawn at random, of about 18,000 reagents tested. About 2,900 of them (16%) were called active. 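Calls are made per well; low scores hint the gene aids the LPS response, high scores that it dampens it.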 Unmarked entries are inactive. Repeated entries: four replicate wells of each siRNA pool. No sequences are given here.

Screen: 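Genes whose knock-down alters the TNF-alpha reporter response to LPS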 (primary screen)
Cell system: human THP-1 monocytic leukaemia cells, TNF dual-luciferase reporter clone, PMA-differentiated to macrophage-like cells
Reagents: siRNA pool against human genes, 50 nM
Duration: LPS for 4 h, given about 3 days after siRNA transfection
Conditions: bacterial LPS (TLR4 ligand), 10 ng/ml
Read-out: 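TNF firefly reporter luminescence divided by renilla, normalised to the plate median, then turned into a robust z-score for each replicate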
Direction: TNF reporter robust z-score: higher = stronger TNF reporter response to LPS
Hit rule: 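Each well counts as active if its z-score is over 2.8 or under -1.5; controls are left without a call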

| Gene | TNF reporter robust z-score |
| --- | --- |
| CUL2 | -0.2 |
| CUL2 | -0.12 |
| CUL2 | -0.41 |
| CUL2 | 0.22 |
| PRR5-ARHGAP8 | -0.5 |
| PRR5-ARHGAP8 | -0.12 |
| PRR5-ARHGAP8 | -0.97 |
| PRR5-ARHGAP8 | 0 |
| ANKRD33 | 1.68 |
| ANKRD33 | 0.3 |
| ANKRD33 | -0.63 |
| ANKRD33 | -0.36 |
| PIK3IP1 | -0.47 |
| PIK3IP1 | 1.76 |
| PIK3IP1 | 0.38 |
| PIK3IP1 | 0.26 |
| NODAL | 0.35 |
| NODAL | 0.51 |
| NODAL | 0.71 |
| NODAL | 0.78 |
| FGF10 | -1.71 (active) |
| FGF10 | -0.68 |
| FGF10 | -1.44 |
| EAF1 | -1.29 |
| EAF1 | -1.42 |
| EAF1 | -1.47 |
| EAF1 | -1.76 (active) |
| OR2AE1 | -0.03 |
| OR2AE1 | 0.23 |
| OR2AE1 | 0.33 |
| OR2AE1 | 0.71 |
| RNF39 | 1.62 |
| RNF39 | 1.49 |
| RNF39 | -0.92 |
| RNF39 | -0.84 |
| OR6C6 | 0.3 |
| OR6C6 | -0.27 |
| OR6C6 | -0.19 |
| OR6C6 | 0.54 |
| GPX4 | -2.11 (active) |
| GPX4 | -1.31 |
| GPX4 | -1.92 (active) |
| GPX4 | -1.55 (active) |
| HHEX | 0 |
| HHEX | 0.31 |
| HHEX | 0.33 |
| HHEX | 0.52 |
| ARF6 | -0.47 |
| ARF6 | -0.29 |
| ARF6 | -0.31 |
| ARF6 | -0.22 |
| PPWD1 | -0.68 |
| PPWD1 | -0.2 |
| PPWD1 | -0.58 |
| PPWD1 | 0.01 |
| C8orf58 | -0.26 |
| C8orf58 | -0.16 |
| C8orf58 | -0.4 |
| C8orf58 | -0.28 |
| HDC | -1.15 |
| HDC | 0.05 |
| HDC | 0.09 |
| HDC | -0.18 |
| TJP2 | 0.07 |
| TJP2 | 1.52 |
| TJP2 | -0.56 |
| TJP2 | 0.52 |
| NDUFAF5 | -0.29 |
| NDUFAF5 | -0.83 |
| NDUFAF5 | -0.39 |
| NDUFAF5 | 2.48 |
| IGFBP4 | 0.02 |
| IGFBP4 | 0.03 |
| IGFBP4 | 0.14 |
| IGFBP4 | -0.35 |
| INHBC | 0.42 |
| INHBC | 0.02 |
| INHBC | -0.32 |
| INHBC | 0.24 |
| GPR35 | 1.34 |
| GPR35 | 0.88 |
| GPR35 | 0.59 |
| GPR35 | 0.35 |
| SH3BP4 | 0.81 |
| SH3BP4 | 1.72 |
| SH3BP4 | -0.27 |
| SH3BP4 | 1.38 |
| PHF13 | 0.72 |
| PHF13 | 1.95 |
| PHF13 | 2.67 |
| PHF13 | 1.23 |
| ERBB2 | -1.35 |
| ERBB2 | 2 |
| ERBB2 | 0.52 |
| ERBB2 | 0.43 |
| MIB2 | 1.92 |
| MIB2 | 1.8 |
| MIB2 | 3.08 (active) |
| MIB2 | 2.76 |
| NBPF11 | 1.6 |
| NBPF11 | 1.43 |
| NBPF11 | 0.34 |
| NBPF11 | 1.53 |
| GALNT3 | -0.35 |
| GALNT3 | -0.01 |
| GALNT3 | -0.45 |
| GALNT3 | -0.7 |
| HEPH | -0.54 |
| HEPH | -0.52 |
| HEPH | 0.35 |
| HEPH | -0.22 |
| SCARB1 | 5.04 (active) |
| SCARB1 | 2.57 |
| SCARB1 | 3.09 (active) |
| SCARB1 | 2.77 |
| ACIN1 | -1.73 (active) |
| ACIN1 | -1.53 (active) |
| ACIN1 | -1.52 (active) |
| ACIN1 | -1.13 |
| INTS6 | 4.77 (active) |
| INTS6 | 2.73 |
| INTS6 | 2.58 |
| INTS6 | 4.62 (active) |
| TMEM115 | -0.7 |
| TMEM115 | -0.26 |
| TMEM115 | -0.3 |
| TMEM115 | 0.68 |
| MYO1C | -0.71 |
| MYO1C | -0.83 |
| MYO1C | -0.61 |
| MYO1C | -0.47 |
| LAMP1 | -1.4 |
| LAMP1 | 1.68 |
| LAMP1 | -1.09 |
| LAMP1 | -0.19 |
| ITGB4 | 0.74 |
| ITGB4 | 1.7 |
| ITGB4 | 1.74 |
| ITGB4 | 1.61 |
| PTS | 0.85 |
| PTS | 1.38 |
| PTS | -0.31 |
| PTS | 1.09 |

Active calls, among the entries above:
| Gene | TNF reporter robust z-score |
| --- | --- |
| FGF10 | -1.71 (active) |
| EAF1 | -1.76 (active) |
| GPX4 | -2.11 (active) |
| GPX4 | -1.92 (active) |
| GPX4 | -1.55 (active) |
| MIB2 | 3.08 (active) |
| SCARB1 | 5.04 (active) |
| SCARB1 | 3.09 (active) |
| ACIN1 | -1.73 (active) |
| ACIN1 | -1.53 (active) |
| ACIN1 | -1.52 (active) |
| INTS6 | 4.77 (active) |
| INTS6 | 4.62 (active) |
